Source: paper PMC8566215
No constants are given. Whether binding was seen depends on the method and setting. In cells and extracts the contact can be indirect. Some entries that bind do so weakly or less than the wild type. Tags and fused reporters may be left off the sequences shown.

Molecular target: T1, 14-3-3 OMEGA:YFP (Arabidopsis thaliana) (UniProt Q01525)
T1 sequence: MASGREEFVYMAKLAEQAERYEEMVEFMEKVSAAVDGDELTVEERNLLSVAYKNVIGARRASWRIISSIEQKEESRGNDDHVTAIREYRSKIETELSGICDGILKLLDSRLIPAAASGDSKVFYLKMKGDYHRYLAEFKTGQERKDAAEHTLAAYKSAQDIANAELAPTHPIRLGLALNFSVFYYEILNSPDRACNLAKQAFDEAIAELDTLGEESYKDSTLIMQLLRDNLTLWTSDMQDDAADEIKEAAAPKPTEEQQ
Assay: co-IP; YFP fusion as bait on GFP-Trap agarose beads from N. benthamiana leaves transiently co-expressing the proteins, extracted 48 h post-infiltration; lysis buffer as for MS; eluted by boiling in SDS-loading buffer; blots with anti-GFP and anti-HA

binding: binds
B1: 14-3-3 KAPPA:HA (protein, UniProt P48348 1-248)
chain: MATTLSRDQYVYMAKLAEQAERYEEMVQFMEQLVSGATPAGELTVEERNLLSVAYKNVIGSLRAAWRIVSSIEQKEESRKNEEHVSLVKDYRSKVETELSSICSGILRLLDSHLIPSATASESKVFYLKMKGDYHRYLAEFKSGDERKTAAEDTMIAYKAAQDVAVADLAPTHPIRLGLALNFSVFYYEILNSSEKACSMAKQAFEEAIAELDTLGEESYKDSTLIMQLLRDNLTLWTSDMQEQMDEA
